The record followed here is PubChem BioAssay AID493014 (National Center for Advancing Translational Sciences (NCATS), 2011).

The list shows a part of the results. Further columns of the screen follow, without active or inactive calls. The list favours compounds with an active or inconclusive main result. Words in brackets tell the shape of the fitted curve; partial curves, single points and poor fits give uncertain potencies. Peptide text beside a SMILES is read from it. * marks the point of attachment. Cbz = O=C(OCc1ccccc1)*

The nature of this experiment: qHTS Assay to Find Inhibitors of Chronic Active B-Cell Receptor Signaling. The following applies: ABC-DLBCL IkBa-CBG/CBR reporter, luminescence ratio (green luciferase fused to IkBa over red control in TMD8 lymphoma cells), 4 h. The essentials:
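TMD8 ABC-DLBCL cells carrying doxycycline-inducible green luciferase fused to IkappaBalpha plus unfused red luciferase were exposed to compounds (up to 46 uM) for 4 hrs at 37C. Activity came from the overlap-corrected green/red luminescence ratio.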
(Quantitative high-throughput screening tests each substance at several concentrations.)

Where [1] appears, read: measured here: CBR red luminescence, cell number.
Setting [2] is: measured here: IkBa-CBG green luminescence.

As to `Cc1cccc(NC(=O)Nc2ccc(F)cc2)n1`, under setting [1], the AC50 is 0.112 µM [rising, full curve, poor fit].

Turning to `C=CCn1c(SCc2ccc(C(=O)Nc3nccs3)cc2)nnc1-c1ccc(C)c(Cl)c1`, the AC50 by setting is: under setting [1], 20.6 µM [falling, partial curve]; under setting [2], 16.4 µM [rising, partial curve]. For the molecule `Cc1nc2cc(C(=O)O)ccc2s1`, the AC50 under setting [1] is 1.41 µM [rising, full curve, poor fit]. In the case of `COc1ccc(NC(=O)C(C)N(c2ccc(C)cc2)S(C)(=O)=O)cc1` (configuration not stated), the concentration at half-maximal activity (AC50) under setting [1] was 2.91 µM [rising, single point]. On the same count and under the same terms, with `O=C(Cn1nnc2ccccc21)NC1CCCCC1` the figure was 35.5 µM [rising, partial curve, poor fit]. Turning to `N#CCSc1nnc(-c2ccccc2O)n1CCc1ccccc1`, the concentration at half-maximal activity (AC50) reads like this: under setting [1], 29.1 µM [falling, single point]; under setting [2], 18.4 µM [rising, partial curve, poor fit]. With `O=C(NC1CCCCC1)C(c1ccccc1)N1CCCC1` (configuration not stated), the half-maximal activity concentration (AC50) under setting [1] was 6.51 µM [falling, single point]. The same measure, in the same setting: next, `O=C(CN1CCN(CC(=O)Nc2ccc(-c3ccccc3)cc2)CC1)Nc1ccc(F)cc1`: 0.316 µM [falling, full curve, poor fit]; `CN(Cc1ccccc1F)Cc1cc(=O)oc2cc(O)c(Cl)cc12`: 1.26 µM [rising, full curve, poor fit]; `COc1cc(Br)cc2cc(C(=O)N3CCN(c4ccccn4)CC3)c(=O)oc12`: 0.146 µM [rising, full curve, poor fit]. On the same count and under the same terms, next, `COC(=O)C(CO)NC(=O)C(C)NC(=O)CNC(=O)OCc1ccccc1` (stereo not drawn) (Cbz-Gly-Ala-Ser-OMe; configuration not given here): 35.5 µM [rising, single point]; `CC(C)CN(CC(C)C)C(=O)CS(=O)(=O)Cc1ccccc1`: 1.3 µM [rising, full curve].

On to `O=c1[nH]c(CN2CCN(c3ccccc3)CC2)nc2ccccc12`, for which the AC50 under setting [1] is 20.6 µM [rising, single point]. The same measure, in the same setting: next, `CCOC(=O)c1cnn(-c2ccc(C(=O)Nc3ccc(OC(F)(F)F)cc3)cc2)c1N`: 7.94 µM [rising, partial curve, poor fit]; `O=C(Nc1ccc(Br)cc1)Nc1cnccn1`: 1.26 µM [rising, full curve, poor fit].

Consider `C=CCn1c(SCC(=O)O)nnc1-c1ccc(C(C)(C)C)cc1`, for which, under setting [2], the AC50 was 11.2 µM [falling, partial curve, poor fit]. For the molecule `CCc1cc2c(-c3ccccc3)cc(=O)oc2cc1OCC(=O)NCC1CCC(C(=O)O)CC1` (configuration not stated), the AC50 under setting [1] was 3.55 µM [falling, partial curve, poor fit]. Still for that read-out and setting: with `O=C(NCCc1ccccc1)c1ccccc1Cl` the figure was 22.4 µM [falling, single point]; with `CC1CCc2nn(CC(=O)NC3CCCC(C)C3C)cc2C1` (configuration not stated), 6.51 µM [rising, single point]. On the same count and under the same terms, with `Nc1ccc(N2CCN(c3ccccc3)CC2)c(F)c1` the figure was 35.5 µM [rising, partial curve, poor fit]; with `CCCCCSc1ncccc1C(=O)O`, 0.631 µM [rising, full curve]. Consider `COc1cccc(NC(=S)N(CCc2ccc(OC)c(OC)c2)Cc2ccccn2)c1`, for which, under setting [1], the AC50 was 1.58 µM [rising, partial curve, poor fit]. On the same count and under the same terms, with `CN(C)S(=O)(=O)c1cccc(-c2csc(=Nc3ccccc3)n2CCCN2CCOCC2)c1` the figure was 7.94 µM [falling, partial curve, poor fit]. The same measure, in the same setting: next, `Cc1ccc(N2CCN(S(=O)(=O)c3ccc4oc(=O)ccc4c3)CC2)c(C)c1`: 22.4 µM [falling, single point].

For `CCOC(=O)C1CCCN(Cc2cc(=O)oc3cc(C)ccc23)C1` (configuration not stated), under setting [1], the AC50 is 35.5 µM [falling, single point]. Turning to `Fc1ccccc1N1CCN(Cc2nc(-c3ccc(Cl)cc3Cl)no2)CC1`, under setting [1], the AC50 was 32.6 µM [rising, single point]. With `COc1ccc(S(=O)(=O)NCC2CCCN(C(=O)CC3CCCC3)C2)cc1` (configuration not stated), the concentration at half-maximal activity (AC50) under setting [1] was 11.2 µM [rising, partial curve, poor fit].

Regarding `CCC(CC)COC(=O)C1=C(C)NC(=O)NC1c1cccc([N+](=O)[O-])c1` (configuration not stated), the AC50 under setting [1] was 11.2 µM [falling, single point].

Turning to `Cc1cc2c(s1)c1cnn(-c3ccccc3)c(=O)c1n2C`, under setting [1], the AC50 is 0.411 µM [rising, partial curve, poor fit]. Consider `COc1cc(C(=O)N/N=C/c2ccccn2)cc(OC)c1OC`, for which the AC50 reads like this: under setting [1], 31.6 µM [rising, single point]; under setting [2], 22.4 µM [falling, single point]. With `COc1cccc(-c2ccc(NC(=O)C3CCCN(Cc4cnn(C(C)C)c4)C3)cc2)c1` (configuration not stated), the half-maximal activity concentration (AC50) under setting [1] is 12.6 µM [falling, partial curve].

With `COc1ccc(N(C(=O)CCl)C(C(=O)NCCc2ccccc2)c2cccs2)cc1Cl` (configuration not stated), the AC50 under setting [1] was 11.6 µM [falling, partial curve]. As for `CC(C)(C)n1cnc2cc(NCc3cccs3)ccc21`, the AC50 under setting [1] is 14.1 µM [falling, single point]. In the case of `COc1cc(-c2nc(-c3ccc4c(c3)-c3ccccc3S4(=O)=O)c(-c3ccccc3)[nH]2)cc(OC)c1O`, the AC50 under setting [1] was 1.46 µM [falling, full curve, poor fit]. As for `COc1cccc(NC(=O)c2ccc(NC(C)=O)cc2)c1`, under setting [1], the AC50 was 1.16 µM [falling, partial curve, poor fit]. Same read-out and setting: next, `NC(=O)Nc1ccc(C(=O)OCC(=O)Nc2sccc2C(N)=O)cc1`: 14.6 µM [falling, partial curve, poor fit]. As for `NS(=O)(=O)c1cccc(NC(=O)COC(=O)c2cc([N+](=O)[O-])ccc2N2CCCC2)c1`, the half-maximal activity concentration (AC50) under setting [2] is 11.6 µM [falling, partial curve, poor fit].

With `Cc1ccc(-n2ncc3c(NCc4ccco4)ncnc32)cc1C`, the AC50 under setting [2] was 4.47 µM [rising, full curve, poor fit]. Take `CCC(CC)=NNc1cccc([N+](=O)[O-])c1`: the AC50 under setting [1] is 29.1 µM [rising, partial curve, poor fit].

A word on the AC50: it is the concentration at which the activity in the assay is half-maximal.
